Data source: PubChem BioAssay AID652243 (Drosophila RNAi Screening Center, 2013)
In all, the deposit lists about 24,000 reagents; below is an unselected part of those with a known target gene and a result. Over the whole deposit, 246 (1%) were called active. 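Plates not normalised; calls are printed but the firefly/Renilla ratio behind them is not deposited; fold cut for lowering reported inconsistently.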 Raw values vary from plate to plate and are shown uncorrected. Entries without a mark were called inactive. Reagents against one gene are numbered here. A plus sign joins genes that one reagent is predicted to hit. Not stated in the record: the amount of reagent.

Purpose: 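Fly regulators of androgen-dependent reporter output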 (primary screen)
Cells: Drosophila S2R+ cells
Reagents: long dsRNA against Drosophila genes
Time to read-out: 72 h (48 h, then 24 h hormone)
Treatment: synthetic androgen R1881 at 10 nM for 24 h
Read-out: 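Firefly light from an androgen-responsive reporter and Renilla control light per well, raw and unnormalised, for each of two replicates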
Scale: firefly reporter light: higher = more light from androgen-responsive reporter; Renilla control light: higher = more constitutive control signal (cell number, transfection)
Hit rule: 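Across duplicate plates, a knock-down whose log firefly/Renilla ratio shifted a set fold down or up from the GFP/LacZ control mean was a hit; the downward cut appears as both 1.5 and 3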
Meaning of the calls: active = hit: reporter lowered or raised; inactive = no hit

target,reagent,"firefly reporter light, replicate 1","firefly reporter light, replicate 2","Renilla control light, replicate 1","Renilla control light, replicate 2"
Liprin-gamma,1,4.43e5,4.15e5,3.43e6,4.36e6
Drep2,1,1.06e6,9.81e5,1.49e6,1.57e6
Drep2,2,7.70e5,4.96e5,1.75e6,5.06e5
CG17134,1,1.38e5,1.72e5,1.55e6,1.57e6
Pos,1,1.64e5,2.07e5,1.84e6,2.95e6
CG6695,1,87312,76399,6.09e5,6.18e5
CG6695,2,1.36e6,1.41e6,1.40e6,1.40e6
kri,1,8.00e5,7.69e5,1.94e6,2.14e6
IntS12,1,1.84e5,1.59e5,2.29e6,2.32e6
CG32188 + CG32189,1,9.93e5,1.10e6,1.35e6,1.25e6
Catsup,1,1.10e5,94913,8.87e5,8.33e5
Catsup,2,1.06e6,8.29e5,1.45e6,1.07e6
Cbp80,1,71472,51009,6.31e5,3.85e5
Vha16-1,1,4.16e5,4.76e5,2.35e6,2.18e6
Skel,1,86215,77697,1.23e6,1.56e6
Skel,2,48510,71178,2.83e5,3.07e5
Ras85D,1,1.27e5,1.03e5,1.55e6,1.50e6
Ras85D,2,7.45e5,7.87e5,1.31e6,1.12e6
Plzf,1,2.58e5,3.99e5,1.06e6,1.42e6
Obp58b,1,2.14e5,2.22e5,1.47e6,1.51e6
CtIP,1,3.54e5,3.20e5,2.21e6,2.45e6
CtIP,2,6.66e5,7.44e5,1.03e6,1.18e6
Pig1,1,5.75e5,4.69e5,3.94e5,5.73e5
Npc1a,1,1.68e5,1.19e5,8.17e5,7.78e5
Pex2,1,9.24e5,8.13e5,1.38e6,1.87e6
Nepl10,1,3.17e5,2.07e5,2.01e6,1.27e6
Drsl6,1,2.17e5,1.82e5,2.81e6,2.43e6
Pfdn2,1,2.39e5,2.07e5,2.32e6,2.27e6
CG43066,1,6.09e5,5.63e5,2.68e6,1.97e6
CG43066,2,6.72e5,6.77e5,7.99e5,8.04e5
Oda,1,3.27e5,2.44e5,1.32e6,1.26e6
Oda,2,5.34e5,5.78e5,1.37e6,1.17e6
CG5966,1,64733,1.14e5,7.01e5,5.99e5
CG17930,1,38669,29276,2.02e5,2.49e5
CG17930,2,4.01e5,6.30e5,7.57e5,1.60e6
strat,1,1.92e5,1.82e5,1.72e6,1.66e6
CG6398,1,1.01e5,87883,7.48e5,7.80e5
Ugt35E1,1,1.03e5,1.05e5,1.49e6,1.71e6
Ugt35E1,2,5.95e5,5.43e5,7.50e5,6.85e5
CG32037,1,2.80e5,2.56e5,3.46e6,2.52e6
rost,1,1.34e6,1.24e6,3.48e6,2.66e6
rost,2,4.06e5,5.03e5,1.73e6,1.74e6
rost,3,9.24e5,1.02e6,1.74e6,1.62e6
CG10587,1,2.44e5,2.27e5,1.96e6,1.86e6
Ak1,1,2.52e5,2.01e5,2.62e6,2.25e6
Ak1,2,5.23e5,3.74e5,9.87e5,1.19e6
CG13895,1,81751,1.01e5,1.28e6,1.24e6
CG9257,1,1.10e5,90126,1.46e6,1.38e6
RhoGAPp190,1,4.39e5,4.55e5,2.61e6,2.03e6
RhoGAPp190,2,92563,80075,9.03e5,4.50e5
CG8860,1,5.41e5,3.95e5,2.41e6,2.98e6
CG8860,2,1.01e6,8.18e5,1.25e6,1.29e6
GM130,1,9.44e5,8.55e5,1.54e6,1.33e6
betaTub65B,1,1.32e5,3.02e5,1.94e6,4.16e6
PCID2,1,7.52e5,6.83e5,1.29e6,1.61e6
PCID2,2,8.89e5,5.97e5,1.66e6,1.32e6
AttC,1,1.47e5,1.75e5,9.59e5,1.07e6
AttC,2,2.69e5,3.59e5,6.32e5,7.42e5
